These are yes or no findings as the source states them, for the method shown. Binding seen in cells or lysates may run through a third protein. Some binding calls cover weakened binding; strength is not graded here. Sequences can lack the tags named with a protein.
Experiments:
GST-sTREM2 (1–158) = target: T1, GST-sTREM2 (1–158) (UniProt Q9NZC2); assay: pull-down; GST pull-down; His-TG2 and GST-sTREM2 co-transfected into HEK293 cells
T1 sequence: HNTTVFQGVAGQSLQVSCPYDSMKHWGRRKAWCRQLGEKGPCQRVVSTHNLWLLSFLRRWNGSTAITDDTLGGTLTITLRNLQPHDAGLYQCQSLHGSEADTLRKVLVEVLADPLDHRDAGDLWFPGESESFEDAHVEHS

Sequences of proteins named here, by UniProt entry; tags and fusion partners are left off.
UniProt P37802: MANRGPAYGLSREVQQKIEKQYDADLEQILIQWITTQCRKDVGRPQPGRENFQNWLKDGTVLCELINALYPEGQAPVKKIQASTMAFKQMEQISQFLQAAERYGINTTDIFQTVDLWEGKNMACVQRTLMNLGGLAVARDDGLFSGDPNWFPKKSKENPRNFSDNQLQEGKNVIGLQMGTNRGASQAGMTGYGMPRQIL
UniProt Q9WVA4: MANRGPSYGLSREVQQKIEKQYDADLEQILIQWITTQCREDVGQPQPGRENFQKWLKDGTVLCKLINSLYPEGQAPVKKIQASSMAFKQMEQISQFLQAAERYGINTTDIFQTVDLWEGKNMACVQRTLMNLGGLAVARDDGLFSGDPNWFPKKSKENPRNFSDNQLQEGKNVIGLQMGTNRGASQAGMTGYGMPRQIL

GST-TREM2 (77–105) = target: T2, GST-TREM2 (77–105) (UniProt Q9NZC2); assay: pull-down; GST pull-down; GST-tagged sTREM2 fragments from cell lysates held on glutathione agarose, washed with NP-40, incubated with lysate overexpressing His-TG2 overnight at 4 °C; only the target purified
T2 sequence: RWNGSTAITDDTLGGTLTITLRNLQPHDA

[1] = target: T3, Fc-tagged human soluble TREM2 (Fc-sTREM2) (human) (UniProt Q9NZC2); assay: pull-down; cell membrane proteins of SH-SY5Y cells or primary neurons incubated with purified Fc-sTREM2 or Fc, pulled down with protein A beads, blot for TG2; only the target purified
T3 sequence: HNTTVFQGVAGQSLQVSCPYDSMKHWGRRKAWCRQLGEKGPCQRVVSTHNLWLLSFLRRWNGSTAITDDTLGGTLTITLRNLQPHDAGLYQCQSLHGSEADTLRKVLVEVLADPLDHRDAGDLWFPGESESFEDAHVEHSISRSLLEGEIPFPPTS

binding (GST-sTREM2 (1–158)) | binding (GST-TREM2 (77–105)) | binding [1] | Substance
binds | binds | – | His-TG2 (from UniProt P37802 1-199)
– | – | binds | transgelin-2 (TG2), endogenous in SH-SY5Y cells (from UniProt P37802 1-199)
– | – | binds | transgelin-2 (TG2), endogenous in mouse primary neurons (from UniProt Q9WVA4 1-199)

Source: publication PMC10590452
